From the supplement of paper PMC5393889
The list shows a part of the results.

test system: Caenorhabditis elegans N2; test: aldicarb interaction hit call (worm growth perturbed in combination with 10 uM aldicarb in both replicates, no effect as single agent) (binary (1 = interacts)); higher = interacts with aldicarb (growth perturbed); settings: first compound 1.5 µM; aldicarb concentration 10 µM; 6 days; 20 °C

Row | Compound | aldicarb interaction hit call
1 | CN(CC1CCCN(CCc2cccc(C(F)(F)F)c2)C1)C(=O)c1ccc(Cl)s1 (stereo not given) [wact-250] + CNC(=O)O/N=C/C(C)(C)SC [aldicarb] | inactive: 0
2 | COc1ccc(/C=C/C(=O)c2ccccc2O)cc1 [wact-588] + CNC(=O)O/N=C/C(C)(C)SC [aldicarb] | inactive: 0
3 | O=C(Nc1ccc(-c2cn3ccccc3n2)cc1)c1ccccc1F [wact-629] + CNC(=O)O/N=C/C(C)(C)SC [aldicarb] | inactive: 0
4 | FC(F)(F)c1cccc(N2CCN(C3CCCN(Cc4cccc5c4OCO5)C3)CC2)c1 (stereo not given) [wact-331] + CNC(=O)O/N=C/C(C)(C)SC [aldicarb] | inactive: 0
5 | Cc1ccccc1-c1nc2ccc(N)cc2o1 [wact-565] + CNC(=O)O/N=C/C(C)(C)SC [aldicarb] | inactive: 0
6 | Ic1ccccc1-c1nc(-c2ccccc2)no1 [wact-178] + CNC(=O)O/N=C/C(C)(C)SC [aldicarb] | inactive: 0
7 | CSc1ccc(C(=O)/C=C/c2ccc(N)cc2)cc1 [wact-464] + CNC(=O)O/N=C/C(C)(C)SC [aldicarb] | inactive: 0
8 | CC(C)(C)OC(=O)Nc1ccc(F)c(Cl)c1 [wact-573] + CNC(=O)O/N=C/C(C)(C)SC [aldicarb] | inactive: 0
9 | O=C(c1ccc(-c2ccccc2)cc1)C1CCCN(C2CCOCC2)C1 (stereo not given) [wact-298] + CNC(=O)O/N=C/C(C)(C)SC [aldicarb] | inactive: 0
10 | CC(C)NCCCCOc1ccc(Br)cc1Cl.O=C(O)C(=O)O [wact-67] + CNC(=O)O/N=C/C(C)(C)SC [aldicarb] | inactive: 0
